Experimental data published in article doi:10.1101/794511.
Results are given in words; binding and its absence hold for the method and conditions named. For some assays here: Binding seen in cells or lysates may run through a third protein. Some entries that bind do so weakly or less than the wild type.

Chains of the proteins cited; added tags and fusions are not shown.
UniProt P31316: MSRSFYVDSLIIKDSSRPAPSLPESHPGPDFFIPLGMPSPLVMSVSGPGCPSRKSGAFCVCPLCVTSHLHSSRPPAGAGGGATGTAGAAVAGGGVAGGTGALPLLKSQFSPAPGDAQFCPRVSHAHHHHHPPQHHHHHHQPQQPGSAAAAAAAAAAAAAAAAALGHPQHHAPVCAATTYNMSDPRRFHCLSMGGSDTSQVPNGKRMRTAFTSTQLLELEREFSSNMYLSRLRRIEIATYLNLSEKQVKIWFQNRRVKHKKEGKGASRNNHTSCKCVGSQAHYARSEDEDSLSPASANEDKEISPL

Experiments:
[1] = biological target: T1, Ascl1, endogenous in the E12.5 mouse telencephalon (mouse (endogenous in E12.5 telencephalon)) (UniProt Q02067); test: co-IP
T1 sequence: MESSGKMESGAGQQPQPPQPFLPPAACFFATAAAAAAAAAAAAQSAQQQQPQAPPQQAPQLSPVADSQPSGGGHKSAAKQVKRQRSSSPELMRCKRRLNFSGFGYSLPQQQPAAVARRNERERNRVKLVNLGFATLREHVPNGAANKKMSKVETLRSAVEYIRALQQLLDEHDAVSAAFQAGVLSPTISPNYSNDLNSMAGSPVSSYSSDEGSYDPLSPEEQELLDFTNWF

[2] = biological target: T2, Ascl1, yeast two-hybrid prey in pGADT7 (mouse) (UniProt Q02067); test: yeast three-hybrid
T2 sequence: T1 sequence

binding [1] | binding [2] | Substance
binds |  | Gsx2, endogenous in the E12.5 mouse telencephalon (from UniProt P31316 1-305)
 | binds | Gsx2, interfering protein of the yeast three-hybrid assay (pBRIDGE MCS2) (from UniProt P31316 1-305)
